In article doi:10.1101/2020.06.30.180471:

T1: SFB-SPRTN full length (FL) (UniProt Q9H040)
T1 sequence: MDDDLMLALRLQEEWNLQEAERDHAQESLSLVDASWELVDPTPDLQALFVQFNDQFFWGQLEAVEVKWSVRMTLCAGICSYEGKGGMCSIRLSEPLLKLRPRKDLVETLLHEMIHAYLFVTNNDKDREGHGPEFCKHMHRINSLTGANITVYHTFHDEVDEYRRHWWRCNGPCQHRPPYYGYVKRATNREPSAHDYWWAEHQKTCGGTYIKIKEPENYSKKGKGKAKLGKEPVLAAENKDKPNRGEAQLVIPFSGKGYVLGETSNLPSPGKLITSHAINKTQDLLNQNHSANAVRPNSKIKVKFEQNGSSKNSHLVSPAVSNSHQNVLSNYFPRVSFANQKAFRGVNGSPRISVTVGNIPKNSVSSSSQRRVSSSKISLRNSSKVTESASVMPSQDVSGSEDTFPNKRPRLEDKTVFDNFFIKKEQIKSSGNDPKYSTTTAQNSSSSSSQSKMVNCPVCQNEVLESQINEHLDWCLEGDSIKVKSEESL


Biological target: T1, SFB-SPRTN full length (FL)
Test: affinity purification with mass spectrometry

Molecule	binding
VCP (from UniProt P55072 1-806)	binds
POLD3 (protein, UniProt Q15054 1-466) MADQLYLENIDEFVTDQNKIVTYKWLSYTLGVHVNQAKQMLYDYVERKRKENSGAQLHVTYLVSGSLIQNGHSCHKVAVVREDKLEAVKSKLAVTASIHVYSIQKAMLKDSGPLFNTDYDILKSNLQNCSKFSAIQCAAAVPRAPAESSSSSKKFEQSHLHMSSETQANNELTTNGHGPPASKQVSQQPKGIMGMFASKAAAKTQETNKETKTEAKEVTNASAAGNKAPGKGNMMSNFFGKAAMNKFKVNLDSEQAVKEEKIVEQPTVSVTEPKLATPAGLKKSSKKAEPVKVLQKEKKRGKRVALSDDETKETENMRKKRRRIKLPESDSSEDEVFPDSPGAYEAESPSPPPPPSPPLEPVPKTEPEPPSVKSSSGENKRKRKRVLKSKTYLDGEGCIVTEKVYESESCTDSEEELNMKTSSVHRPPAMTVKKEPREERKGPKKGTAALGKANRQVSITGFFQRK	binds

These are yes or no findings as the source states them, for the method shown. In cells and extracts the contact can be indirect. A yes stands for co-enrichment or nearness to the bait. Other partners may have been found.
